Measured values from PubChem BioAssay AID2662 (National Center for Advancing Translational Sciences (NCATS), 2010).
The campaign covered roughly 290,000 compounds. About 110 (0.038%) were called active. Inconclusive results, whose numbers are uncertain, are shown with a selection of clear calls. Calls come from the whole dose curve; as a rule, active = well fitted inhibition curve with a large enough effect in the polarisation, with a control signal flat (not every such curve was filed as active); inconclusive = small, poorly fitted or top-dose-only effect, or effect the other way, or a change in a side signal; inactive = no such curve, though single readings can be large or run the other way; the % refers to the polarisation. Where the call is inconclusive, the potency comes from a doubtful curve fit. “Side channel” marks fits to a control or component signal instead of the main read-out.

Sequences of proteins named here, by UniProt entry; tags and fusion partners are left off.
UniProt Q03164, whole entry, looked up: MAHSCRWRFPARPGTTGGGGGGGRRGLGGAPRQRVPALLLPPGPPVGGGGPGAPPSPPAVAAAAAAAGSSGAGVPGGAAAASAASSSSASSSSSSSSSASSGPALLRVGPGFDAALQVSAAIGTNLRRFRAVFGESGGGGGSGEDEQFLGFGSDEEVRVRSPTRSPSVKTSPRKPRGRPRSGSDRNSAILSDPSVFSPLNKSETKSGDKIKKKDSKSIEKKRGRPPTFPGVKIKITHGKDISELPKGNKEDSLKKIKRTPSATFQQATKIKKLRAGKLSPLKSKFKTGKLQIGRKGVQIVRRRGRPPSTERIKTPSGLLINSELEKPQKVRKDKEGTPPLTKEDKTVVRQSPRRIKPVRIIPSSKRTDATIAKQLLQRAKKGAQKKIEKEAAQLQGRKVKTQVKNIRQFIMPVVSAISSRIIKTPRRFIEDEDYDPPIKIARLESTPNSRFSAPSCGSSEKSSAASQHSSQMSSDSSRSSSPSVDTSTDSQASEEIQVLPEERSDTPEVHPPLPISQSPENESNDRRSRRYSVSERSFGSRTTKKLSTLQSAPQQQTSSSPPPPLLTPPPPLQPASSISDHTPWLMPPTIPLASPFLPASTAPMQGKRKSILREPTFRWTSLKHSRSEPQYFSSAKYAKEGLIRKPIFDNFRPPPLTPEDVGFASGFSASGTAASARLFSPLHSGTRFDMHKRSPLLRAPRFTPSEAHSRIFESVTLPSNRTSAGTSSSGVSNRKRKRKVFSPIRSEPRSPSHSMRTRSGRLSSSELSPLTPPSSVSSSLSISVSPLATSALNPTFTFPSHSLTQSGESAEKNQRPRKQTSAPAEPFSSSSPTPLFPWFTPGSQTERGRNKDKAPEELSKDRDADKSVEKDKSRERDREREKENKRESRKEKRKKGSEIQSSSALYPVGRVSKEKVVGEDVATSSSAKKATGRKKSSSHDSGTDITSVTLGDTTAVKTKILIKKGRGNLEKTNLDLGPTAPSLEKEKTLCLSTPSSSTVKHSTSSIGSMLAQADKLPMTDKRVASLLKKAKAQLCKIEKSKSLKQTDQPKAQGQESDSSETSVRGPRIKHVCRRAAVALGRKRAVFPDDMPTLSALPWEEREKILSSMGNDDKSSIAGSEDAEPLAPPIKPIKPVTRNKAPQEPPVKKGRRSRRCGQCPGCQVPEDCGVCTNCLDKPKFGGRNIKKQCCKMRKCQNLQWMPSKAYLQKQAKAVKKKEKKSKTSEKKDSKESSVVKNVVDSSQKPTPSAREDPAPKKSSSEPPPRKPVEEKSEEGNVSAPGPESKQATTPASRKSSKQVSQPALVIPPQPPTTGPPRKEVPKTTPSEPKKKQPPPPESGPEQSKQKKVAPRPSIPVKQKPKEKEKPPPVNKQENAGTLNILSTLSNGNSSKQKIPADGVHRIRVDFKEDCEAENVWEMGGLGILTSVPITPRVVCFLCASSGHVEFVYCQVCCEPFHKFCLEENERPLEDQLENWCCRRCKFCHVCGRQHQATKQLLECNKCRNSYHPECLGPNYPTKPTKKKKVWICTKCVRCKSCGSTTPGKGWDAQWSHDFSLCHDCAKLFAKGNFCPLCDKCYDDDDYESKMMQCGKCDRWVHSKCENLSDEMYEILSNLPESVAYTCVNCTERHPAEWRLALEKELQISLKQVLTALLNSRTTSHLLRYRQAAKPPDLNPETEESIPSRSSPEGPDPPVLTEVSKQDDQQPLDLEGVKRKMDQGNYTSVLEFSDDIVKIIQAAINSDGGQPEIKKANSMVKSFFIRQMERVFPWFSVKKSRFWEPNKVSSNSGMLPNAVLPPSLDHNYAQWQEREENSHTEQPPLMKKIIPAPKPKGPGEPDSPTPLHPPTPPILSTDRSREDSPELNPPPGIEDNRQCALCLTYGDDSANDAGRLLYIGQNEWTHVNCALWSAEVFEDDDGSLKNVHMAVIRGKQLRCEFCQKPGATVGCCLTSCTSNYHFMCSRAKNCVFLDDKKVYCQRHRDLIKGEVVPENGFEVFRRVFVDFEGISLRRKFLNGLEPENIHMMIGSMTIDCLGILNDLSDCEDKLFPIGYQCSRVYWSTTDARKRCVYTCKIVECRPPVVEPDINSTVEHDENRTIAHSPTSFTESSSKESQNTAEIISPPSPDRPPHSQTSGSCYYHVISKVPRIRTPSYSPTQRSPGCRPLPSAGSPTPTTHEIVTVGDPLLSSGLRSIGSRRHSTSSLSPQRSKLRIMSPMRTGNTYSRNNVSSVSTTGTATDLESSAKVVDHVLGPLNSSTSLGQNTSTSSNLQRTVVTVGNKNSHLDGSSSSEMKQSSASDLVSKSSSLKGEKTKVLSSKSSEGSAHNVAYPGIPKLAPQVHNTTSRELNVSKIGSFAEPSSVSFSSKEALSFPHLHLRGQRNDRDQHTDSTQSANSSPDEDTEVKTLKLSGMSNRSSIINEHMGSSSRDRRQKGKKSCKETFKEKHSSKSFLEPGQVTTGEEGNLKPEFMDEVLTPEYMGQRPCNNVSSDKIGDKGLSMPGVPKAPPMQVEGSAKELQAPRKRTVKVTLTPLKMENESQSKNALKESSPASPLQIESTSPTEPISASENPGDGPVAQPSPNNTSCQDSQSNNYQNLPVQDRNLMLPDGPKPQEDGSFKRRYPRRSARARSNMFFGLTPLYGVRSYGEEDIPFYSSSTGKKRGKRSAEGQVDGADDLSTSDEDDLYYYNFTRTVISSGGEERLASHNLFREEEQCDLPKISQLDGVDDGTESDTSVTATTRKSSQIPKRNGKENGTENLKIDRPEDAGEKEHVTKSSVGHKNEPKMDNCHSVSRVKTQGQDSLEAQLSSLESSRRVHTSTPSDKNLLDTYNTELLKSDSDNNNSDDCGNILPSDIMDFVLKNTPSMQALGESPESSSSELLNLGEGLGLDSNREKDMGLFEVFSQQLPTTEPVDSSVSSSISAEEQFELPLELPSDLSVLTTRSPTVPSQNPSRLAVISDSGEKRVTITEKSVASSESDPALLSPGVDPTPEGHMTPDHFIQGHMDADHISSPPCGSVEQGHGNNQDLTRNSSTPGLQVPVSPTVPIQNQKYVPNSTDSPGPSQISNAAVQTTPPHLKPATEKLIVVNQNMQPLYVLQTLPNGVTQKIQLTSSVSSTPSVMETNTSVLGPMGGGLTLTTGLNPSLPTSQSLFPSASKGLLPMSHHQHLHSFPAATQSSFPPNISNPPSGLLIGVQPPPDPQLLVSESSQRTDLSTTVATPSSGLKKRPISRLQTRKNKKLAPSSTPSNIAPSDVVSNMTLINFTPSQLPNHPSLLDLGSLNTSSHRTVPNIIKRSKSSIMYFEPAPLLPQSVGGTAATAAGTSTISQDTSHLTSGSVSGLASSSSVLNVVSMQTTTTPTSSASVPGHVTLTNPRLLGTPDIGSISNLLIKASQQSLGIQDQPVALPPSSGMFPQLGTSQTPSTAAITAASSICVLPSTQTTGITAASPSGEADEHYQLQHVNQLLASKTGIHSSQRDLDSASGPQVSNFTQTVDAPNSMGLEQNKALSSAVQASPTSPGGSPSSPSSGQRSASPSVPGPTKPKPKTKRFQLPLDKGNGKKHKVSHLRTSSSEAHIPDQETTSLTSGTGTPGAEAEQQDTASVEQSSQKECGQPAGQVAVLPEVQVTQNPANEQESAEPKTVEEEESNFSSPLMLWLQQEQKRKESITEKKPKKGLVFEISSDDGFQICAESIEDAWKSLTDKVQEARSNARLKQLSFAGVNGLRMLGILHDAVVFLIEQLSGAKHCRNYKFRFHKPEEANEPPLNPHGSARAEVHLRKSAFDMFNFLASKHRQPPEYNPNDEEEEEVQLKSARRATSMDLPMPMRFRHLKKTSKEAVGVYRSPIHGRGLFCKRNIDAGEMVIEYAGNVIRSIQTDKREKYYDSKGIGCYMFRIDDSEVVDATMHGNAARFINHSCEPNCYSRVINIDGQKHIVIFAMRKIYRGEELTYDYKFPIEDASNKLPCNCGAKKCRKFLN

target: Histone-lysine N-methyltransferase 2A (Homo sapiens) (UniProt Q03164); assay: qHTS Fluorescence Polarization Assay for Inhibitors of MLL CXXC domain - DNA interaction; conditions: MLL-CXXC / FITC-HOXA9 DNA fluorescence polarization; activity change, negative = inhibition: at 115 µM (top of the series)
In short: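 Fluorescence polarization: 7 uM MLL-CXXC (stock) preincubated 5 min with compounds, then 50 nM fluorescein-HOX-A9 DNA (stock) added; 30 min ambient. Buffer 50 mM Tris-HCl pH 7.5, 50 mM NaCl, 1 mM DTT, 0.05% BSA.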
Potency is the fitted concentration of half-maximal effect.

| SMILES | activity change, negative = inhibition | Potency |
| --- | --- | --- |
| CC1(c2nnc(-c3ccccc3)o2)CC(c2cccnc2)=NO1 (stereo not drawn) | inconclusive: 5.19% [phenotype inactive] |  |
| Cc1cc(C)cc(N(CC(=O)NCCSCc2ccco2)S(C)(=O)=O)c1 |  | inconclusive: 1.12 µM [inhibitor, full curve, poor fit] |
| O=C1CN(C(=S)Nc2ccccc2Cl)CCN1 |  | inconclusive: 14.1 µM [fluorescent, side channel, single point] |
| Cc1nn(CC(=O)OCC(=O)NC(C)c2ccccc2)c(C)c1[N+](=O)[O-] (stereo not drawn) |  | inconclusive: 89.1 µM [inhibitor, single point] |
| O=C(c1cccs1)N1CCN(S(=O)(=O)c2cccs2)CC1 | inactive: 3.46% |  |
| CC(=O)Nc1ccc2ccccc2c1 | inactive: -17.9% |  |
| CC1=CC(C)C2COC(c3ccc[n+](C)c3)C1C2C (stereo not drawn) | inactive: 2.08% |  |
| Cc1[nH]c2ccccc2c1C(=O)COC(=O)Cn1c(C(F)(F)F)nc2ccccc21 |  | inconclusive: 11.2 µM [fluorescent, side channel, single point] |
| CCn1c(SCC(=O)OC)nc2sc3c(c2c1=O)CC(C)(C)OC3 |  | inconclusive: 15.8 µM [quencher, side channel, single point] |
| CCCn1c(=N)c(C(=O)NCc2ccc3c(c2)OCO3)cc2c(=O)n3cccc(C)c3nc21 |  | inconclusive: 39.8 µM [quencher, side channel, single point] |
| Cc1ccnc(NS(=O)(=O)c2ccc(NC(=O)Cc3ccc(Br)cc3)cc2)n1 | inactive: 6.37% |  |
| Cn1c(SCC(=O)N2CCN(S(=O)(=O)c3ccc(Cl)cc3)CC2)nc2ccccc21 |  | inconclusive: 10 µM [quencher, side channel, full curve, poor fit] |
| COc1cccc(C2C3CN(C)CC=C3C(C#N)=C(N)C2(C#N)C#N)c1OC (stereo not drawn) |  | inconclusive: 39.8 µM [fluorescent, side channel, partial curve] |
| Cc1csc(NC(=O)c2sc3nc(-c4cccs4)ccc3c2N)n1 |  | inconclusive: 50.1 µM [fluorescent, side channel, partial curve] |
| CC(CNS(=O)(=O)c1ccccc1)Sc1ncccn1 (stereo not drawn) |  | inconclusive: 8.91 µM [quencher, side channel, single point] |
| O=C(CSCc1c(F)cccc1Cl)NCc1ccncc1 |  | inconclusive: 14.1 µM [inhibitor, single point] |
| Cc1ccc(CN2C(=O)CSC(C)C2=O)cc1 (stereo not drawn) |  | inconclusive: 44.7 µM [fluorescent, side channel, single point] |
| Cc1ccc(N2C(=N)/C(=C3/Nc4ccccc4S3)C(c3ccccc3)C2=O)cc1 (stereo not drawn) |  | inconclusive: 8.91 µM [fluorescent, side channel, full curve] |

| SMILES | activity change, negative = inhibition | Potency |
| --- | --- | --- |
| O=C(O)c1cccc(-n2c(/C=C/c3cccc([N+](=O)[O-])c3)nc3ccccc3c2=O)c1 |  | inconclusive: 8.91 µM [inhibitor, full curve, poor fit] |
| CCOC(=O)CN1C(=O)S/C(=C/c2ccc(OCc3ccc(C(=O)O)cc3)cc2)C1=O |  | inconclusive: 70.8 µM [fluorescent, side channel, single point] |
| N=C1/C(=C/c2coc3ccccc3c2=O)C(=O)N=C2SC(c3ccco3)=NN12 |  | inconclusive: 35.5 µM [fluorescent, side channel, partial curve] |
| Cc1ccnc(SC2CC(=O)N(c3ccc(C(C)C)cc3)C2=O)n1 (stereo not drawn) |  | inconclusive: 8.91 µM [quencher, side channel, full curve, poor fit] |
| COc1cc(/C=C2/C(=O)NN(c3cccc(C)c3)C2=O)ccc1OC(=O)c1ccco1 |  | inconclusive: 28.2 µM [inhibitor, partial curve] |
| CCOC(=O)c1cccc(NC(=O)c2cc(C)nn2-c2ccccc2)c1 |  | inconclusive: 14.1 µM [fluorescent, side channel, single point] |
| Cc1oc2cc3oc(=O)ccc3cc2c1C |  | inconclusive: 14.1 µM [inhibitor, single point] |
| C=CCN1C(=O)/C(=C/c2ccc(-c3ccc(F)cc3)o2)SC1=S |  | inconclusive: 39.8 µM [fluorescent, side channel, partial curve] |
| O=C(NCCc1ccccc1)C(=O)NCC1OCCCN1S(=O)(=O)c1cccs1 (stereo not drawn) |  | inconclusive: 14.1 µM [fluorescent, side channel, single point] |
| CCc1ccc(S(=O)(=O)Nc2ccc(O)c3ccccc23)cc1 | inactive: 19.8% |  |
| COc1ccc(Cc2c(O)nc(SCC(=O)NC34CC5CC(CC(C5)C3)C4)[nH]c2=O)cc1 |  | inconclusive: 35.5 µM [fluorescent, side channel, partial curve] |
| CCOC(=O)CN(C(=O)Cn1nnc2ccccc21)C(C(=O)NCCOC)c1ccccc1C (stereo not drawn) | inactive: -0.472% |  |
| CC(=O)c1ccc(OCc2cc([N+](=O)[O-])cc3c2OCOC3)cc1 |  | inconclusive: 44.7 µM [fluorescent, side channel, single point] |
| COc1ccc(Nc2nc3ccccc3nc2NS(=O)(=O)c2cccs2)c(OC)c1 |  | inconclusive: 35.5 µM [fluorescent, side channel, partial curve, poor fit] |
| NC(=O)c1ccc(N=Nc2c(O)c3ccccc3[nH]c2=O)cc1 |  | inconclusive: 56.2 µM [inhibitor, single point] |
| Cc1nc2[nH]c(=S)n(C)c(=O)c2nc1C | inactive: 3.12% |  |
| COc1ccc(CNc2nc(-c3cccnc3)nn2C(=O)c2ccco2)cc1 |  | inconclusive: 31.6 µM [fluorescent, side channel, single point] |
| Cc1nn(C)c(C)c1CNC(=O)Nc1ccc(Cl)cc1 |  | inconclusive: 1 µM [fluorescent, side channel, full curve, poor fit] |
| CCCCn1c(=NC(=O)c2cccnc2)c(C(=O)OCC)cc2c(=O)n3ccccc3nc21 | inactive: 9.23% |  |
